Laboratory results: PubChem BioAssay AID1347421 (Sanford-Burnham Center for Chemical Genomics, 2020)
In all, about 1,500 compounds were measured (“activity”: median about 2, lowest 2% from about -18 on). The list shows a part of the results. Calls of active or inactive are those of the source.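 The calls were made as follows: active = inhibition of at least 40% at 10 µM; inconclusive = no clear call, values can overlap the other calls; inactive = the rest.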

Protein sequences, listed by entry. Tags and fused reporters are not part of them. Lines headed by an entry give the natural chain unless they say otherwise; changes in a name come on top.
UniProt O00391: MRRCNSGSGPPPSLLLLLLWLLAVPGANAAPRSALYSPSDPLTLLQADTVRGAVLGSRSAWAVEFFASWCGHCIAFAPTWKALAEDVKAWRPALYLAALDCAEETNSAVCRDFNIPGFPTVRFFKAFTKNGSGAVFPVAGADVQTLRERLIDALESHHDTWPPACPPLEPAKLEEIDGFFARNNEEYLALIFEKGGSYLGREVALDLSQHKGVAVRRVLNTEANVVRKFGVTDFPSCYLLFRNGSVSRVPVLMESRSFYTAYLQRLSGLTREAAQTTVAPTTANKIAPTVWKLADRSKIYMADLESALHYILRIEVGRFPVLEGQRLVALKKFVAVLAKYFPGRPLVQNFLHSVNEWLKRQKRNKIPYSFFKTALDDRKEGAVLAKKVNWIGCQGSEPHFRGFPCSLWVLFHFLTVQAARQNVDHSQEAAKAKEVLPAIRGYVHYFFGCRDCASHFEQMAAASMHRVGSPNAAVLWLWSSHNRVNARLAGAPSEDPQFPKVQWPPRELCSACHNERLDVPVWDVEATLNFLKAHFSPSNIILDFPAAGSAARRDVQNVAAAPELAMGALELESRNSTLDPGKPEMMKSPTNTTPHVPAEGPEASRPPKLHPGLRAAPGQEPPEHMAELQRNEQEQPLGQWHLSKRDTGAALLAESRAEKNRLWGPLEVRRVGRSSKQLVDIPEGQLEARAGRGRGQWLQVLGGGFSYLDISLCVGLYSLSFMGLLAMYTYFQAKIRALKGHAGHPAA

Biological target: Sulfhydryl oxidase 1 (Homo sapiens) (UniProt O00391)
Assay: QSOX1 enzyme inhibitors, confirmation, biochemical, ROS-Glo luminescence, single concentration (AID 1347421);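 also: 0% = DMSO wells with enzyme and 100% = wells lacking QSOX1 enzyme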
Conditions: recombinant hQSOX1, RNase A substrate, ROS-Glo H2O2 luminescence; at 10 µM

SMILES | activity
Cc1nn(C)c(C)c1-c1cnc(C2CC(=O)N(CC(C)C)C2)[nH]1 (stereo not drawn) | 5.6%
COCCN(CC1CC1)CC1CCN(Cc2ccccc2F)CC1 | inactive: -0.9%
Cc1ccc(Nc2nnc(C)s2)c(C)c1 | 3.7%
CCN(CC)CC(=O)N1CCOC(Cc2ccccc2Cl)C1 (stereo not drawn) | 2.5%
CN(Cc1csc(-c2cccs2)n1)CC1(O)CCCN(C)C1=O (stereo not drawn) | 4.1%
O=c1cc(O)nc(SCc2ccc(F)cc2)[nH]1 | inactive: -4.8%
Cc1cc(CNCc2cccc(OCC(O)CN3CCCCCC3)c2)on1 (stereo not drawn) | inactive: -2.7%
O=C(C1CCN(c2ccccc2)C1=O)N1CCN(Cc2ccccc2)CC1 (stereo not drawn) | inactive: -2.5%
Cc1cccc(N2CCN(C(=O)CC3C(=O)NCCN3Cc3ccccc3F)CC2)n1 (stereo not drawn) | 6.9%
O=C1CCCCN1CCC(=O)N1CCOC(CCc2ccccc2)C1 (stereo not drawn) | 5%
CCn1ncc(CN2CCCC(Nc3ccc4c(c3)OCO4)C2)c1C (stereo not drawn) | 3.3%
COc1cc(CNCCc2ccncc2)ccc1OCC(O)CN(C)C(C)C (stereo not drawn) | 6.3%
COc1cc(CNCc2cccc(C)c2)ccc1OCC(O)CN1CCC(O)CC1 (stereo not drawn) | 1.6%
O=C(CC1C(=O)NCCN1Cc1ccccc1)NCCCn1cccn1 (stereo not drawn) | inactive: -5.4%
Cc1ccsc1CNc1ccc(Cl)c(C(=O)O)c1 | inactive: -10.6%
Cc1cccc(CN(C)C(=O)c2cc(-c3cn[nH]c3)nc3ccc(F)cc23)n1 | inactive: -0.8%
CC(=O)c1cccc(CN2CCc3[nH]nc(-c4cccc(F)c4)c3C2)c1 | 0.5%
Cn1nccc1C(=O)Nc1cccc(F)c1 | inactive: -13.4%
O=C(C1CCCO1)N1CCc2[nH]nc(-c3ccc(C(F)(F)F)cc3)c2C1 (stereo not drawn) | inactive: -2.9%
COc1ccc(CCN(C)C2CCCN(C(=O)c3cc[n+]([O-])cc3)C2)cc1OC (stereo not drawn) | inactive: -5%
O=C(Nc1ccccc1C(=O)N1CCCC1)C1CCCCC1 | inactive: -3.9%
O=C(c1cc(S(=O)(=O)N2CCOCC2)c(Cl)cc1Cl)N1CCSCC1 | inactive: -18.4%

Among those listed so far, these contain a Cl atom:
SMILES | activity
CCN(CC)CC(=O)N1CCOC(Cc2ccccc2Cl)C1 (stereo not drawn) | 2.5%
Cc1ccsc1CNc1ccc(Cl)c(C(=O)O)c1 | inactive: -10.6%
O=C(c1cc(S(=O)(=O)N2CCOCC2)c(Cl)cc1Cl)N1CCSCC1 | inactive: -18.4%

The list goes on:

SMILES | activity
COCc1ccc(C(=O)N2CCC(CCC(=O)NCc3cccnc3)CC2)o1 | 4.1%
CN(C(=O)CCN1CCCCC1=O)C1CCCN(CCCc2ccccc2)C1 (stereo not drawn) | 1%
Cc1ccc(-c2n[nH]c3c2CN(C(=O)Cc2ccc4c(c2)NC(=O)CO4)CC3)cc1 | inactive: -5.4%
Cc1[nH]n2c(=O)c3c(nc2c1-c1ccc(F)cc1)CCC3 | inactive: -16.9%
CN(Cc1ccc2nsnc2c1)C(=O)c1cn(Cc2ccc(F)cc2Cl)nn1 | 2%
Fc1ccccc1-c1noc2c1CN(Cc1ccc3c(c1)OCCO3)CC2 | inactive: -4.5%
COc1cc(OC)c(CN2CCN(C3CCCCC3)C(CCO)C2)c(OC)c1 (stereo not drawn) | 0.7%
OCCOc1ccc(CN2CCCC(N3CCc4ccccc4C3)C2)cc1 (stereo not drawn) | 2.6%
COCc1ccc(CN2CC[C@@H](N(C)CCc3ccccn3)[C@H](O)C2)o1 | 0.7%
CCC(=O)Oc1ccc(/C=C/c2ccc3ccccc3n2)cc1 | active: 71.1%
Cc1ccoc1C(=O)N1CCCC(CCC(=O)N2CCN(c3ccccn3)CC2)C1 (stereo not drawn) | 3.7%
CCN(Cc1ccncc1)Cc1cc(OC)ccc1OCC(O)CN1CCC(O)CC1 (stereo not drawn) | 2.6%
COc1cc(CNCCN2CCNC2=O)ccc1OCC(O)CN1CCSCC1 (stereo not drawn) | 2.8%
CC(C)n1nccc1NC(=O)Cn1ccc(-c2ccccc2)n1 | 3.1%
COc1ccc(-c2nc(CN3CCCCC3c3nccs3)c(C)o2)c(OC)c1 (stereo not drawn) | inactive: -0.4%
Cn1ncc(N2CCC(CNC(=O)NC3CCCC3)C2)cc1=O (stereo not drawn) | inactive: -4.8%
O=C(c1ccc2c(c1)OCO2)C1CCCN(Cc2cccn2-c2ccccn2)C1 (stereo not drawn) | 7.3%
O=C(/C=C/c1cccnc1)N1CCCC(N2CCN(c3ccc(F)cc3)CC2)C1 (stereo not drawn) | 1%
Nc1nc(/C=C/c2ccccc2Cl)nc(-c2ccccc2O)n1 | 1.5%
Cc1ccc(S(=O)(=O)NC2CCCCC2)cc1C(N)=O | inactive: -20.3%
N#Cc1nccnc1N1CCN(CC2(c3ccc(F)cc3)CCOC2)CC1 (stereo not drawn) | 2.3%
CC1CCN(Cc2nnnn2CCCC(=O)NC(C)c2nccs2)CC1 (stereo not drawn) | 6%

A draw from above in order of heavy-atom count, high to low:
SMILES | activity
COc1cc(CNCCN2CCNC2=O)ccc1OCC(O)CN1CCSCC1 (stereo not drawn) | 2.8%
Fc1ccccc1-c1noc2c1CN(Cc1ccc3c(c1)OCCO3)CC2 | inactive: -4.5%
CCn1ncc(CN2CCCC(Nc3ccc4c(c3)OCO4)C2)c1C (stereo not drawn) | 3.3%
COCCN(CC1CC1)CC1CCN(Cc2ccccc2F)CC1 | inactive: -0.9%

Next part:

SMILES | activity
O=C1CN(c2nc3nonc3nc2NC2CCCC2)CCN1C1CCCC1 | inactive: -1.2%
Cc1ccc(CN2CCN(Cc3ccc(C)o3)CC2CCO)cc1 (stereo not drawn) | inactive: -5%
OC1CCN([C@@H]2CCN(Cc3ccc(OCc4ccccc4)cc3)C[C@H]2O)CC1 | inactive: -1%
COc1ccc(-c2noc(CN(Cc3c(C)nn(C)c3C)C(C)C)n2)c(OC)c1OC | 3.3%
CC(C)CCCC1CN(C2CCN(Cc3ccccn3)CC2)CCO1 (stereo not drawn) | 5.9%
CCOC(=O)c1cnc(SCC(=O)N2CCCC2)nc1N | inactive: -16.3%
[C+](=CCNCC1CCCO1)c1ccccc1 (stereo not drawn) | 4.1%
C=CCNC(=O)CCc1ccc(S(=O)(=O)NC)cc1 | inactive: -11.4%
OCCOc1cccc(CN2CCN(CCc3ccccc3)C(CCO)C2)c1 (stereo not drawn) | 3.4%
CCCc1nnc(SCC(=O)NC2CC3CCC2C3)o1 (stereo not drawn) | inactive: -4.5%
CN(C)S(=O)(=O)c1cccc(S(C)(=O)=O)c1 | 8.2%
CCCN1CCC(CCC(=O)NC2CC2)CC1 | 14.1%
Cc1nc(-c2ccc(CN3CCC(CCn4cccn4)CC3)cc2)[nH]c(=O)c1F | 7.1%
Cc1nc2sccn2c1C(=O)N1CCCC(N(C)Cc2ccccc2)C1 (stereo not drawn) | inactive: -0.3%
CCOC(=O)CNC(=O)N1CCCC(N2CCN(c3ccccc3)CC2)C1 (stereo not drawn) | 1.6%
c1ccc(CCCC2CN(Cc3ccncc3)CCO2)cc1 (stereo not drawn) | 3.2%
CCC(C)c1n[nH]c2c1CN(C(=O)c1scc3c1OCCO3)CC2 (stereo not drawn) | 6.3%
CN1CCN(S(=O)(=O)c2ccc3c(c2)CC(=O)N3C)CC1 | 6.2%
O=C(NCCc1cccnc1)Nc1nnc(-c2ccc(F)cc2)s1 | inactive: -5.8%
CC1=C(C(=O)NCc2cccnc2Oc2ccccc2C)OCCO1 | inactive: -0.4%
O=c1c2ccccc2cnn1Cc1ccon1 | 2.9%
CC(C)N(C)Cc1nnnn1CC(=O)NCCc1cn2ccsc2n1 | 1.5%

SMILES | activity
CCn1c(SCC(=O)N2CCCCCC2)nc2ccccc21 | inactive: -11.6%
O=C(CCCn1nnnc1CN1CCOCC1)NC(c1ccccn1)C(F)(F)F (stereo not drawn) | 9.7%
O=C(c1csnn1)N1CCOC(CCCc2ccccc2)C1 (stereo not drawn) | 4.3%
O=C(CCC1CCN(C2CCSCC2)CC1)NCC1CCCO1 (stereo not drawn) | 0.9%
COc1ccc(-n2cc(CN(C)CC3COCCO3)c(-c3cccc(F)c3)n2)cc1 (stereo not drawn) | 1.7%
COc1ccc(NC(=S)NCCCn2ccnc2)cc1 | inactive: -2.9%
O=C(Cn1ncn2cccc2c1=O)N1CCC(CCn2cccn2)CC1 | 2.6%
COC(=O)c1ccc(N2CCOC(Cc3cccc(OC)c3)C2)nc1 (stereo not drawn) | 15.4%
O=C(Cn1ncc2ccccc2c1=O)N1CCCC(CN2CCOCC2)C1 (stereo not drawn) | 3.5%
c1csc(C2=N[N+](=C3CCNCC3)N=N2)c1 | inactive: -16.6%
COc1cc(/C=N/O)ccc1OCc1cccc(C(=O)O)c1 | active: 99.4%
COC(=O)c1ccc(N2CCOCC2)c(NC(=O)c2cccs2)c1 | 3.5%
O=C(CCC1CCCN(C/C=C/c2ccc(F)cc2)C1)N1CCCC1 (stereo not drawn) | inactive: -1.2%
O=C(CCC1CCN(C(=O)CCOc2ccccc2)CC1)NCc1cccnc1 | 4.8%
COc1cc(CN2CCC(CCC(=O)N3CCOCC3)CC2)cc(Cl)c1OC | inactive: -5.6%
COC(C)(C)CNCc1ccccc1OCC(O)CN1CCCCC1 (stereo not drawn) | 1.9%
O=C(c1ccc2c3c(cccc13)CC2)C1CCCN(C(=O)CCN2CCCO2)C1 (stereo not drawn) | inactive: -1.8%
Cc1oc(-c2ccccc2Cl)nc1CN(Cc1cnn(C)c1)C(C)C | 5.9%
Cc1nc(CN(C)C(=O)c2cn(Cc3ccccc3F)nn2)cs1 | active: 43.2%
O=C(c1ccoc1)N1CCC(C2CCN(Cc3cccnc3)CC2)C1 (stereo not drawn) | 3.8%
Cc1oc(-c2ccc(-c3ccccc3)cc2)nc1CN1CCOCC1 | 7.3%
CC(C)NC(=O)C1CCN(C2CCN(C3CCSCC3)CC2)CC1 | 0.2%

SMILES | activity
CC(C)Cn1c(CN(C)Cc2ccco2)cnc1S(=O)(=O)CC1CCCO1 (stereo not drawn) | 4.1%
CN1CCc2nc3sc(C(=O)NCc4ccc(F)cc4)c(N)c3cc2C1 | inactive: -4.7%
CCOC(=O)C1(Cc2cccc(OC)c2)CCN(CC(C)CC)CC1 (stereo not drawn) | 10.4%
Cc1cccnc1CN(C)C(=O)c1cc(-c2cnn(C)c2)nc2cc(F)ccc12 | 10.2%
COc1cc(CN2CC[C@@H](N3CCCCCC3)[C@H](O)C2)ccc1F | 0.7%
CC(C)n1cc(CN2CCN(Cc3ccc(F)c(F)c3)C(CCO)C2)cn1 (stereo not drawn) | 1.2%
O=C(Nc1cccc(-n2cnnn2)c1)C1CCCN1CCCC(F)(F)F (stereo not drawn) | inactive: -2.9%
COc1ccccc1CNCc1ccc(C(=O)O)cc1 | inactive: -12.9%
COc1ccc(CN2CCN(Cc3ccoc3)CC2CCO)c(F)c1 (stereo not drawn) | 3.2%
Cc1ccc(F)cc1CNCc1ccc(OCC(O)CN2CCN(C)CC2)cc1 (stereo not drawn) | 1.9%
CN(C)S(=O)(=O)N1CCC(Oc2ccc(C(=O)N3CCN(CC4CC4)CC3)cc2)CC1 | 4%
Cc1cccc(CS(=O)(=O)NCCN(C)C)c1 | 7.7%
COC(=O)CCCNC(=O)C1CCC(=O)N(Cc2ccccc2OC)C1 (stereo not drawn) | 1.6%
NC(=O)C1CCN(C(=O)CN2CCC(Cc3ccccc3)CC2)CC1 | inactive: -15%
CN(Cc1cnccn1)C(=O)Nc1nnc(C(F)(F)F)s1 | 5.5%
COC(=O)c1ccc(-c2noc(CN(C)CC3Cc4ccccc4O3)n2)cc1 (stereo not drawn) | 5.4%
CC(=O)Nc1cccc(C(=O)N2CCN(c3ccccc3)CC2)c1 | 5.9%
O=C1COc2ccc(C(=O)NCc3ccco3)cc2N1 | inactive: -6.1%
COCCN1CCCC(O)(CN2CCCCCC2)C1=O (stereo not drawn) | 10.4%
C=CCN1CCN(c2nc3c(c(=O)[nH]c(=O)n3C)n2CCc2ccccc2)CC1 | inactive: -3.4%
